Where “and” joins values, the source holds several entries; their conditions need not be identical. Equal entries are not always repeated. Some of the results follow. Single values are uncertain here, since repeats match poorly.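 HEK293T cells were given each compound shortly before transfection with a reporter in which red mCherry is followed by the SARS-CoV-2 frameshift element and then GFP in the −1 frame, so GFP appears only after frameshifting.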
System: HEK293T
Assay: percent viability (nuclei count) relative to control; higher = more viable cells
Details: 10 µM; 24 h

Row | Compound | percent viability
1 | CNCCCN1c2ccccc2CCc2ccccc21 [desipramine] | 219%
2 | CC(=O)OCC(=O)[C@@]1(O)CC[C@H]2[C@@H]3CCC4=CC(=O)CC[C@]4(C)[C@H]3[C@@H](O)C[C@@]21C | 182%
3 | O=C1/C(=C/c2cccs2)CCC/C1=C\c1cccs1 [tenylidone] | 102%
4 | CC[C@H](C)C(=O)O[C@H]1C[C@@H](C)C=C2C=C[C@H](C)[C@H](CC[C@@H]3C[C@@H](O)CC(=O)O3)[C@H]21 [lovastatin] | 242% and 97.7%
5 | N#Cc1ccc(C2CCCc3cncn32)cc1 (centres undefined) [fadrozole] | 216%
6 | N=C(N)N/N=C/c1c(Cl)cccc1Cl | 200%
7 | COc1c(N2CCNC(C)C2)c(F)cc2c(=O)c(C(=O)O)cn(C3CC3)c12 (centres undefined) [gatifloxacin] | 352% and 157%
8 | OC[C@H]1O[C@@H](c2ccc(Cl)c(Cc3ccc(O[C@H]4CCOC4)cc3)c2)[C@H](O)[C@@H](O)[C@@H]1O [Empagliflozin] | 70.7%
9 | CCC(CC)(CC(=O)Nc1cccc(/C=C/c2nc(C3CCC3)cs2)c1)C(=O)O [cinalukast] | 305%
10 | CC(=O)OCC(=O)[C@@]1(O)CC[C@H]2[C@@H]3CCC4=CC(=O)CC[C@]4(C)[C@H]3C(=O)C[C@@]21C | 88.1%
11 | NC1CCN(c2nc3c(cc2F)c(=O)c(C(=O)O)cn3-c2ccc(F)cc2F)C1 (centres undefined) [tosufloxacin] | 94.7%
12 | CC1(C)[C@@H](OC(=O)CCC(=O)O)CC[C@]2(C)[C@H]3C(=O)C=C4[C@@H]5C[C@@](C)(C(=O)O)CC[C@]5(C)CC[C@@]4(C)[C@]3(C)CC[C@@H]12 [carbenoxolone] | 256%
13 | O=C(O)Cc1ccc(-c2ccccc2)cc1 [felbinac] | 166%
14 | O=C(O)c1cc(-c2ccccc2)nc2ccccc12 [cinchophen] | 205%
15 | CCN(CC)CCOC(=O)C1(c2ccccc2)CCCC1 [caramiphen] | 102%
16 | CO[C@H]1C[C@H](O[C@@H]2/C(C)=C/C[C@@H]3C[C@@H](C[C@]4(CC[C@H](C)[C@@H](C5CCCCC5)O4)O3)OC(=O)[C@@H]3C=C(C)/C(=N/O)[C@H]4OC/C(=C\C=C\[C@@H]2C)[C@]43O)O[C@@H](C)[C@@H]1O [selamectin] | 70.4%
17 | COc1cc(N)c(Cl)cc1C(=O)N[C@@H]1CCNC[C@@H]1OC [ticalopride] | 396%
18 | Nc1ncnc2c1ncn2Cc1c(F)cccc1Cl [arprinocid] | 100%
19 | O=C(O)CN1C(=O)c2cccc3cccc(c23)C1=O [alrestatin] | 351%
20 | CCC1(c2ccccc2)NC(=O)N(C)C1=O (centres undefined) [mephenytoin] | 267%
21 | CC(C(=O)O)c1ccc2c(c1)Cc1ccccc1-2 (centres undefined) [cicloprofen] | 236%
22 | CCCC1(CC(=O)O)OCCc2c1[nH]c1ccccc21 (centres undefined) [prodolic acid] | 169%
23 | NC(=O)CCCCC1CCSS1 (centres undefined) | 284%
24 | Cc1cccc(N2CC(CO)OC2=O)c1 (centres undefined) [Toloxatone] | 116%
25 | CC(=O)Oc1cc(C(C)C)c(OCCN(C)C)cc1C [moxisylyte] | 233%

Row | Compound | percent viability
26 | CCCNS(=O)(=O)Nc1ncnc(OCCOc2ncc(Br)cn2)c1-c1ccc(Br)cc1 | 301%
27 | O=C([O-])c1ccccc1O.[Na+] | 208%
28 | CNCC[C@@H](Oc1ccccc1C)c1ccccc1 | 322%
29 | Nc1ccc(C(=O)O)c(O)c1 | 281%
30 | CCN(Cc1ccncc1)C(=O)C(CO)c1ccccc1 (centres undefined) | 167%
31 | COc1ccc2cc1Oc1cc3c(cc1OC)CC[N+](C)(C)[C@H]3Cc1ccc(cc1)Oc1c(OC)c(OC)cc3c1[C@@H](C2)[N+](C)(C)CC3 [Metubine] | 171%
32 | CO[C@H](C(=O)[C@@H](O)[C@@H](C)O)[C@@H]1Cc2cc3cc(O[C@H]4C[C@@H](O[C@H]5C[C@@H](O)[C@H](O)[C@@H](C)O5)[C@H](O)[C@@H](C)O4)c(C)c(O)c3c(O)c2C(=O)[C@H]1O[C@H]1C[C@@H](O[C@H]2C[C@@H](O[C@H]3C[C@](C)(O)[C@H](O)[C@@H](C)O3)[C@@H](O)[C@@H](C)O2)[C@H](O)[C@@H](C)O1 [plicamycin] | 18.6%
33 | CC(=O)CCCCn1c(=O)c2c(ncn2C)n(C)c1=O [pentoxifylline] | 295% and 253%
34 | CCOc1ccc2ccccc2c1C(=O)N[C@@H]1C(=O)N2[C@@H]1SC(C)(C)[C@@H]2C(=O)O | 329%
35 | CN1CCN(C2=Nc3cc(Cl)ccc3Nc3ccccc32)CC1 [clozapine] | 250%
36 | CO/N=C(\C(=O)N[C@@H]1C(=O)N2C(C(=O)O)=C(COC(N)=O)CS[C@H]12)c1ccco1 [Zinacef] | 180%
37 | NCCCC[C@H](N)C(=O)O [lysine] | 247%
38 | CNCC[C@H](Oc1cccc2ccccc12)c1cccs1 [duloxetine] | 247%
39 | CC(CCc1ccc(O)cc1)NCCc1ccc(O)c(O)c1 (centres undefined) | 145% and 250%
40 | COc1nc(N)nc2c1ncn2[C@@H]1O[C@H](CO)[C@@H](O)[C@@H]1O | 101%
41 | CC(C)(C)NCC(O)COc1nsnc1N1CCOCC1 (centres undefined) [Blocarden] | 244%
42 | CN1CCCCC1CCN1c2ccccc2Sc2ccc([S+](C)[O-])cc21 (centres undefined) [mesoridazine] | 211%
43 | O=C1[C@H]2CCCC[C@H]2C(=O)N1CCCCN1CCN(c2nsc3ccccc23)CC1 [perospirone] | 130%
44 | CNCCC(Oc1ccccc1OC)c1ccccc1 (centres undefined) [nisoxetine] | 235%
45 | OCCN1CCN(CCCN2c3ccccc3Sc3ccc(C(F)(F)F)cc32)CC1 [fluphenazine] | 194% and 470%
46 | CCCCc1nc(Cl)c(CO)n1Cc1ccc(-c2ccccc2-c2nnn[nH]2)cc1 | 321%
47 | CCCC(CCC)C(=O)O[C@H]1C[C@H]2CC[C@@H](C1)[N+]2(C)C [octatropine methylbromide] | 159%
48 | CCC1(CC)COC(=O)NC1=O [diethadione] | 334%
49 | CC1(C)O[C@@H]2C[C@H]3[C@@H]4C[C@H](F)C5=CC(=O)C=C[C@]5(C)[C@@]4(F)[C@@H](O)C[C@]3(C)[C@]2(C(=O)CO)O1 [fluocinolone acetonide] | 254% and 147%

Individual results from above.
Value of CN1CCN(C2=Nc3cc(Cl)ccc3Nc3ccccc32)CC1 [clozapine] under percent viability: 250%
Value of CCN(Cc1ccncc1)C(=O)C(CO)c1ccccc1 (centres undefined) under percent viability: 167%
Value of CCC1(c2ccccc2)NC(=O)N(C)C1=O (centres undefined) [mephenytoin] under percent viability: 267%

— the supplement of paper PMC8256030
